No constants are given. Whether binding was seen depends on the method and setting. For some assays here: In cells and extracts the contact can be indirect. Some binding calls cover weakened binding; strength is not graded here.
Columns and labels:
[1] = molecular target: Flag-NOTCH1 (human) (UniProt P46531); experiment: co-IP; THLE2 cells transfected with Flag-NOTCH1 and HA-KEAP1, under CCl4 exposure; IP buffer 20 mM Tris-HCl pH 7.4, 150 mM NaCl, 1 mM EDTA, 1% Triton X-100; Protein G agarose overnight at 4 °C; immunoblot
[2] = molecular target: KEAP1-HA-GST (human) (UniProt Q14145); experiment: pull-down; GST pull-down (MagneGST Pull-Down System); GST fusion on GST particles, 1 h at 4 °C, His-tagged partner added; eluate analysed by western blot; GST tag alone as control; both purified

Chains of the proteins cited; added tags and fusions are not shown. Residues count along the entry.
UniProt P46531, residues 19-2555: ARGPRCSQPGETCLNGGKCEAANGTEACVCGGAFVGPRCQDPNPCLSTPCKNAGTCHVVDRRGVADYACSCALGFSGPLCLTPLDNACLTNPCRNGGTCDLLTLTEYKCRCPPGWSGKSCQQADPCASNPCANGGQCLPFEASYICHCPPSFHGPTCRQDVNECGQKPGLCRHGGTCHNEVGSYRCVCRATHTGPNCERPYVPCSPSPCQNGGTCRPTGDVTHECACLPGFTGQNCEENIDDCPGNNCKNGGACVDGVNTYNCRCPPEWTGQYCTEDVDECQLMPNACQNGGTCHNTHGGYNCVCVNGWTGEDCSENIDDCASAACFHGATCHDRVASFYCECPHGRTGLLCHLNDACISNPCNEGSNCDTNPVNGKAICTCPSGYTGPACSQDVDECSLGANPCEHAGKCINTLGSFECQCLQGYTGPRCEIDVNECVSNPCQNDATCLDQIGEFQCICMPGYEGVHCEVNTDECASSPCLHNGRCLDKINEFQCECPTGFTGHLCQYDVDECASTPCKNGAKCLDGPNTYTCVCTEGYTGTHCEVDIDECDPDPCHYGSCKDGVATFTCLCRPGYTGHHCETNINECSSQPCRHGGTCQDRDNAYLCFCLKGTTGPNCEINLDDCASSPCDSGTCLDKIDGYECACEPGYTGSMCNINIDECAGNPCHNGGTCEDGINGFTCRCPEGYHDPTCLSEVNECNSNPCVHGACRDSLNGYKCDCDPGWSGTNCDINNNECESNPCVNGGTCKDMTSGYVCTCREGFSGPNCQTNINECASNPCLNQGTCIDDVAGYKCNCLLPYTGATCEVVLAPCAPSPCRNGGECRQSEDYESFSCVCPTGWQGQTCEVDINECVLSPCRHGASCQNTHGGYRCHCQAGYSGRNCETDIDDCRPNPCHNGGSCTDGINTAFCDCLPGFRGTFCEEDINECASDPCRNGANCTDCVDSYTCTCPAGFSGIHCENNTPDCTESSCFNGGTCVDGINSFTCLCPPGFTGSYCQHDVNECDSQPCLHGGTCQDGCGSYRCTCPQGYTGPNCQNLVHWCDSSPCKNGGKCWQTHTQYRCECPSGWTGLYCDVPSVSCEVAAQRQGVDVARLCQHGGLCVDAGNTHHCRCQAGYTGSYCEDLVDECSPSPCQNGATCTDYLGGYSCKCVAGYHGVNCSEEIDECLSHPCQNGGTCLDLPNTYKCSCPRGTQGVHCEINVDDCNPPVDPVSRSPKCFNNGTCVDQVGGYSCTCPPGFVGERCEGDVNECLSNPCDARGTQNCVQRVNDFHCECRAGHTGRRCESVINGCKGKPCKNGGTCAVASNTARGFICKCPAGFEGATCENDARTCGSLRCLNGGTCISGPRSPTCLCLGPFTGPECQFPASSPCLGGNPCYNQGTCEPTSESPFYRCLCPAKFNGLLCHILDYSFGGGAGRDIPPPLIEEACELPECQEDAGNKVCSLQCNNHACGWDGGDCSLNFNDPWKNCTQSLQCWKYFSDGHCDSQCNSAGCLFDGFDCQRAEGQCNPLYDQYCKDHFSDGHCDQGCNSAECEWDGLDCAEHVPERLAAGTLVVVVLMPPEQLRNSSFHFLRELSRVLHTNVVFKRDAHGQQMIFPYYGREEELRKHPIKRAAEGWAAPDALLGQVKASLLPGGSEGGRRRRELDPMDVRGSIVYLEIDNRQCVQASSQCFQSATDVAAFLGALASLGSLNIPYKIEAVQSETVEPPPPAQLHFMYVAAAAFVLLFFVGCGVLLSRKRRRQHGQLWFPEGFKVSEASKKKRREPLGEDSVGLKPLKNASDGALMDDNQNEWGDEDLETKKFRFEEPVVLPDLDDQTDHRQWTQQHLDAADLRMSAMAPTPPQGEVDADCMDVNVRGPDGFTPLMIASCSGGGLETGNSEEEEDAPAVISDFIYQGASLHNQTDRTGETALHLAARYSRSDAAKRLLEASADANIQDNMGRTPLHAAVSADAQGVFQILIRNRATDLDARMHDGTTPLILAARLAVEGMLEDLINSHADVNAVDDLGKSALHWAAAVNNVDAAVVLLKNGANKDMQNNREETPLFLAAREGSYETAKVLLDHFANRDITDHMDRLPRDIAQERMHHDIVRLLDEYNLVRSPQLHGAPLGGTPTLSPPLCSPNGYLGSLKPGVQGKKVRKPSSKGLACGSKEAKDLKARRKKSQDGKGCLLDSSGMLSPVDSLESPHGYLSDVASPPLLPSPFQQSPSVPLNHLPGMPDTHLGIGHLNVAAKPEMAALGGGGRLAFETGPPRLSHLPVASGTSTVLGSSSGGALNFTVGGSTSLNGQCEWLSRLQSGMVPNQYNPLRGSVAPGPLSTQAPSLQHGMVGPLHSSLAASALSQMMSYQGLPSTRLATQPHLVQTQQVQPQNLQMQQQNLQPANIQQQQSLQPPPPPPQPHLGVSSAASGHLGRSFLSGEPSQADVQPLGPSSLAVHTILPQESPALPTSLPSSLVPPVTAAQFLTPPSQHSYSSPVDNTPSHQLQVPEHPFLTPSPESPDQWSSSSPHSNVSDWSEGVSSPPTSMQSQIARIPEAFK
UniProt Q14145: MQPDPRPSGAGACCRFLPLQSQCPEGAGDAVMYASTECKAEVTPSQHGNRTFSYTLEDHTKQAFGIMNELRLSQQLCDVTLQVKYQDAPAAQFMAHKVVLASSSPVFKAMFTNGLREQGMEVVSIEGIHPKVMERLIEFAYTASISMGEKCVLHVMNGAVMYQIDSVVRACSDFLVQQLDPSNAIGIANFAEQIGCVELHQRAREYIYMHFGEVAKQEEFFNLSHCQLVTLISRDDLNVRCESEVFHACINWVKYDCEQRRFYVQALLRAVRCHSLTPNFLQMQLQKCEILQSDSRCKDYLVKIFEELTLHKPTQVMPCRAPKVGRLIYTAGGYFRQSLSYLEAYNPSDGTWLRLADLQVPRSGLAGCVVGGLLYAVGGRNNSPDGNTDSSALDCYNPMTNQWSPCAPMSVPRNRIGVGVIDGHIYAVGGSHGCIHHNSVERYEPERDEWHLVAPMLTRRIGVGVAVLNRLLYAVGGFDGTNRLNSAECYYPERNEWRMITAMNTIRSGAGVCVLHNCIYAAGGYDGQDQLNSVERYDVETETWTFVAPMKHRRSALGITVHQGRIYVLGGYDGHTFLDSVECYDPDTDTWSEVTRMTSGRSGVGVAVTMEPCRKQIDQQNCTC

Row | Substance | binding [1] | binding [2]
1 | HA-tagged KEAP1 (HA-KEAP1) (from UniProt Q14145 1-624) | binds | –
2 | NOTCH1-His (from UniProt P46531 19-2555) (receptor) | – | binds

From publication PMC12335071
